The values that follow come from article PMC13053910, “Covalent Protein Inhibitors via Tyrosine and Tryptophan Conjugation with Cyclic Imine Mannich Electrophiles” (Angewandte Chemie (International Ed. in English), 2026).

A short description of this data set: Reaction of cyclic imine Mannich or sulfur fluoride electrophiles with Ac-Tyr-NHMe (HPLC, LC/MS). The data set is classed as physicochemical. The following applies: electrophile 5 mM, Ac-Tyr-NHMe 100 mM, PBS pH 7, 37 °C. As for the experimental part:
To identify an appropriate warhead, we synthesized or purchased a collection of cyclic imines and incubated them with N‐acetyl‐L‐tyrosine methylamide (Ac‐Tyr‐NHMe) in PBS pH 7 at 37 °C (Table 1). The reactivity was quantified by UV integration on HPLC with LC/MS confirmation of product identity (Figure S1). […] The hydrolysis kinetics of imine 2 were characterized at pD 6 and 7.5 by NMR (Figure S3). […] The Mannich reaction mechanism involves a charged iminium intermediate, and the reaction is frequently catalyzed by Bronsted acids.^[ [36], [37] ^]
Figure 2 Second‐order rate constants for select cyclic imines and a sulfonyl fluoride with aromatic nucleophiles. Reactions were conducted under pseudo‐first‐order conditions with an excess of one reactant, as indicated. The reduction in the concentration of the limiting reactant was measured at various time points by HPLC analysis.
Figure S2: Second order rate constant determination. Reaction of (A) imine 1 (5 mM) with N-Ac-Tyr-NHMe (100 mM) at 37 °C or (B) at R.T. (C) imine 2 (5 mM) with N-Ac-Tyr-NHMe (100 mM) at 37 °C (D) imine 1 (5 mM) with indole-3-butyrate (100 mM) at 37 °C (E) imine 1 (10 mM) with 1 mM 1H-pyrrole-1-propionate (F) iminium 5 (5 mM) with N-Ac-Tyr-NHMe (100 mM) at 37 °C (G) imine 4 (5 mM) with N-Ac-Tyr-NHMe (100 mM) at 37 °C. (H) imine 11 (5 mM) with N-Ac-Tyr-NHMe (100 mM) at 37 °C. (I) imine 13 (5 mM) with N-Ac-Tyr-NHMe (100 mM) at 37 °C.
5.1 General procedure for determination of second order rate constants N-acetyl-l-tyrosine methyl amide (Ac-Tyr-NHMe) (100 mM) was incubated with 5 mM imine 1 in PBS (pH 7) at 37 °C or R.T..

In the case of `O=c1cnc2ccccc2o1` [compound 3], the “reactivity: % conv. in 30 mins” value (30 mins, competing hydrolysis) is given as 30% conv. in 30 mins ^b).

For the compound `C1=NCCc2c1[nH]c1ccccc21` [compound 6], the “reactivity (in words)” value is recorded as “very weak”. Further, the “reactivity: % conv. in 72 h” value (72 h) is 30% conv. in 72 h.

For the compound `COc1ccc2c3c([nH]c2c1)C(C)=NCC3` [compound 7], the “reactivity (in words)” value is on record as “no reactivity”.

For `C1=NCCc2ccccc21` [compound 8], the “reactivity (in words)” value is “limited”. In addition, the “reactivity: % conv. in 24 h” value (24 h) came to 5% conv. in 24 h.

For `CC1=NCCC1` [compound 9], the “reactivity (in words)” value is “no and no reactivity”.

On to `O=C1NCC=Nc2ccccc21` [compound 10], for which the “reactivity (in words)” value is “no and no reactivity”.

For the compound `O=S1(=O)C=Nc2ccccc2O1` [compound 12], the “reactivity (in words)” value is “not stable in aqueous solution”.

Turning to `O=C(O)c1ccc(OS(=O)(=O)F)cc1` [compound 14, reference compound], the “reactivity (in words)” value is “low reactivity”.
